Test results reported in publication PMC3760890.
These are yes or no findings as the source states them, for the method shown. For some assays here: Binding seen in cells or lysates may run through a third protein. Some results given as binding are weak or reduced against the parent protein; the word gives no strength. Sequences can lack the tags named with a protein.

T1: GST-pTAC5 (Arabidopsis thaliana) (UniProt A1A6M1)
T1 sequence: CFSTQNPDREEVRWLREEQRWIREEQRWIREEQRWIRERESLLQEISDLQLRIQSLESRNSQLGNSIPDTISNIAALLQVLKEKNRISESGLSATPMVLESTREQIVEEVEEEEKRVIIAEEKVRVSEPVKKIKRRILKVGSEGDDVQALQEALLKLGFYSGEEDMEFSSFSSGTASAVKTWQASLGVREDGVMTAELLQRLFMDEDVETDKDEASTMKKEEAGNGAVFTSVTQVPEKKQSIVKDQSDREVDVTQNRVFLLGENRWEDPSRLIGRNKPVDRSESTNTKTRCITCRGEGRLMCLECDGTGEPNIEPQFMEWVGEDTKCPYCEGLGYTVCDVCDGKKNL


Experiments:
[1] = target: T1, GST-pTAC5 (Arabidopsis thaliana); experiment: pull-down; GST-fused and His-fused proteins from E. coli incubated with glutathione sepharose 4B beads 2 h at 4 °C; washed with 20 mM Tris-HCl, 0.1 mM EDTA, 100 mM NaCl, 0.2% Triton X-100, pH 7.4; protein gel blots
[2] = target: FLN1 (Fructokinase-Like Protein1), yeast two-hybrid fusion (Arabidopsis thaliana) (UniProt Q9M394); experiment: two-hybrid; pairwise tests in yeast, pGBKT7 (BD) and pGADT7 (AD) fusions

binding [1] | binding [2] | Binder
binds |  | FLN2-His (protein, UniProt F4I0K2 45-614) AAGRRKLSESAPLEEEGNDGNGAVVGKKPSKSVKRTTKKKVVVKDEPLEEISEFLVDNDDVLDKESIVSALKPKKTRTRKKAAAASSDVEEVKTEKKVRRKRTVKKDKDVEDDLATIMDAEVSDVEEALAVESTDTESEEEEIDLSKHEGEDISHTYGWPPLVCCFGSAQHAFVPSGRPANRLLDYELHERMRDAKWAPEKYIRAPGGCAGGVAIALASLGGKVAFMGKLGADDYGQAMLYYLNVCKVQTRSVKIDGKRVTACSTMKISKRGRLKSTCIKPCAEDSLSKSEINVDVLKEAKMFYFSTHSLLDKKMMSTTIQAIKISKQLGNVIFYDLNLPLPLWHSSEETKSFIQEVWNLADVIEITKQELEFLCGIEPTEEFDTENNDISKFVHYPPETVEQLWHENLKVLFVTNGTSKIHYYTKEHNGAVSGMEDVPITPFTRDMSASGDGIVAGLIRMLTVQPDLMNNKGYLERTARYAIECGIIDQWLLAQTRGYPPKDDMEEEEDDEEEDEVESDPNGIRSITEKEYRTSKPYDEPDGPYVMKPVEEREYKKLELVGSMFEDGSL
 | binds | FLN1 (Fructokinase-Like Protein1), yeast two-hybrid fusion (protein, UniProt Q9M394 1-471) MASLLIFPHLHHFDSSLDRREVLVVRHSQASRRFLTPKASINGSGITNGAAAETTSKPSRKGRKKKQTSTVIEKDNTETDPELNPELADYDDGIEFPYDDPPLVCCFGAVQKEFVPVVRVHDNPMHPDMYSQWKMLQWDPPEFGRAPGGPPSNVAISHVRLGGRAAFMGKVGEDDFGDELVLMMNQERVQTRAVKFDENSKTACTRVKIKFKDGKMMAETVKEPPEDSLFASELNLAVLKEARIFHFNSEVLTSPTMQSTLFTAIQWSKKFGGLIFFDLNLPLPLWRSRNETRKLIKKAWNEANIIEVSQQELEFLLDEDYYERRRNYTPQYFAEDFDQTKNRRDYYHYTPEEIKSLWHDKLKLLVVTDGTLRLHYYTPTFDGVVIGTEDVLITPFTCDRTGSGDAVVAGIMRKLTTCPEMFEDQDVMERQLRFAVAAGIIAQWTIGAVRGFPTESATQNLKEQVYVPSMW
